{"source": "patent US5227487A", "about": "“Certain tricyclic and pentacyclic-hetero nitrogen rhodol dyes” (Molecular Probes, Inc., priority 1990, dated 1993)", "test": "Chemical reactivity of rhodol dyes with model compounds", "settings": "for reaction with 1-aminobutane: TLC or HPLC", "note": "Some entries repeat one wording, which the source may state once for all of them."}
{"compound": "O=C(ON1C(=O)CCC1=O)c1ccc(C(=O)O)c(-c2c3cc(Cl)c(=O)cc-3oc3c4c5c(cc23)CCCN5CCC4)c1", "note": "[Compound 29]", "values": [{"measurement": "reaction with 1-aminobutane", "value": "reacts to form new products"}]}
{"compound": "O=C(CCl)NCc1c2oc3c4c5c(cc3c(-c3ccccc3C(=O)O)c-2ccc1=O)CCCN5CCC4", "note": "[Compound 35]", "values": [{"measurement": "reaction with 2-mercaptoethanol", "value": "reacts"}]}
{"compound": "NNC(=O)CCc1cc2c(-c3ccccc3C(=O)O)c3cc4c5c(c3oc-2cc1=O)CCCN5CCC4", "note": "[Compound 49]", "values": [{"measurement": "reaction with acetone", "setting": "acetone", "value": "reacts"}]}
{"compound": "O=C1CCc2cc3c(cc2O1)Oc1c(cc2c4c1CCCN4CCC2)C31OC(=O)c2ccccc21", "note": "(stereo not drawn) [Compound 63]", "values": [{"measurement": "reaction with 1-aminobutane", "value": "reacts to form new products"}, {"measurement": "reaction with amines and hydrazine", "setting": "amines and hydrazine, to give 50 and 49", "value": "reacts"}]}
{"compound": "O=C(CI)NCCCCCNC(=O)CCc1cc2c(-c3ccccc3C(=O)O)c3cc4c5c(c3oc-2cc1=O)CCCN5CCC4", "note": "[Compound 44]", "values": [{"measurement": "reaction with 2-mercaptoethanol", "value": "reacts"}]}
